Results as given in publication PMC11479942, “XPD stalled on cross-linked DNA provides insight into damage verification”.
Positions count from the first letter of the chain named. For at least one entry, the source does not settle the construct or the ends of the probe. At least one verdict was read from the data and is not stated in words by the source. Protein sequences can lack the tags named with them.

Columns and labels:
Experiment in all cases: fluorescence anisotropy
[1] = molecular target: T1, XPD R372A R355A (Chaetomium thermophilum (paper: C. thermophilum)) (UniProt G0RZH0); details: 5 mM MgCl2, no nucleotide, range over all variants; Fluorescence anisotropy: 20 mM HEPES pH 7.5, 50 mM KCl, 5 mM MgCl2, 1 mM TCEP, 5 nM DNA, room temperature; recombinant protein; protein details: N-terminal 6xHis, TEV site; label: 5' Cy3; folded or branched DNA
T1 sequence (looked up, limits assumed): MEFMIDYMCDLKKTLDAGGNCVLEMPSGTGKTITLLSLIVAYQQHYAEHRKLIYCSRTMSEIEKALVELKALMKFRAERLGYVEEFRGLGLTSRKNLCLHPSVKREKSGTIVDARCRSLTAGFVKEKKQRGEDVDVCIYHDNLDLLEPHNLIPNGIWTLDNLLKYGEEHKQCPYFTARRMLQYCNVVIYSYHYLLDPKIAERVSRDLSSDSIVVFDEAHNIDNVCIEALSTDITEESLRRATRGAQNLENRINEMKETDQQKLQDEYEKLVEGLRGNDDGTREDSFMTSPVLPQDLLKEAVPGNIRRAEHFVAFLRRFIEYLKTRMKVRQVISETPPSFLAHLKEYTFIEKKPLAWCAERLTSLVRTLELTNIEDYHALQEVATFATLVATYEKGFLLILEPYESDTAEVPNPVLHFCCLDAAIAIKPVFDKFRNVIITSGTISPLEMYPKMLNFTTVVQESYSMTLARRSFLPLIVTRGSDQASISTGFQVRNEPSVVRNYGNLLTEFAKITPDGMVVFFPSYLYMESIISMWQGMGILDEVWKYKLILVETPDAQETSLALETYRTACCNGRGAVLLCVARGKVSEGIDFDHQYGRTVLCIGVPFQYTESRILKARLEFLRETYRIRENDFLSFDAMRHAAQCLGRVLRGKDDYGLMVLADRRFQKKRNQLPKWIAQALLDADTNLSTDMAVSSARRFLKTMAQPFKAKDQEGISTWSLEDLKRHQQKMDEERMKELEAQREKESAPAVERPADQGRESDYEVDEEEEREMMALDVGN

[2] = molecular target: T2, XPD W373E W356E (Chaetomium thermophilum (paper: C. thermophilum)) (UniProt G0RZH0); details: 5 mM MgCl2, no nucleotide, range over all variants; Fluorescence anisotropy: 20 mM HEPES pH 7.5, 50 mM KCl, 5 mM MgCl2, 1 mM TCEP, 5 nM DNA, room temperature; recombinant protein; protein details: N-terminal 6xHis, TEV site; label: 5' Cy3; folded or branched DNA
T2 sequence (looked up, limits assumed): T1 sequence (looked up, limits assumed) with A355R, W356E

[3] = molecular target: T3, XPD R372E R355E (Chaetomium thermophilum (paper: C. thermophilum)) (UniProt G0RZH0); details: 5 mM MgCl2, no nucleotide, range over all variants; Fluorescence anisotropy: 20 mM HEPES pH 7.5, 50 mM KCl, 5 mM MgCl2, 1 mM TCEP, 5 nM DNA, room temperature; recombinant protein; protein details: N-terminal 6xHis, TEV site; label: 5' Cy3; folded or branched DNA
T3 sequence (looked up, limits assumed): T1 sequence (looked up, limits assumed) with A355E

[4] = molecular target: T4, XPD W373A W356A (Chaetomium thermophilum (paper: C. thermophilum)) (UniProt G0RZH0); details: 5 mM MgCl2, no nucleotide, range over all variants, own value in Extended Data Table 1 (not in material); Fluorescence anisotropy: 20 mM HEPES pH 7.5, 50 mM KCl, 5 mM MgCl2, 1 mM TCEP, 5 nM DNA, room temperature; recombinant protein; protein details: N-terminal 6xHis, TEV site; label: 5' Cy3; folded or branched DNA
T4 sequence (looked up, limits assumed): T1 sequence (looked up, limits assumed) with A355R, W356A

Measured: binding result

TTTTTTTTTTTTTTTCCCGGCCATGCGAAGCATGGCCGTT [5' overhang self-annealing hairpin]
binds: all assays above
